Laboratory results published in PMC6157487.
Read-outs that look alike come from different tables or passages of the source. These are yes or no findings as the source states them, for the method shown. Binding seen in cells or lysates may run through a third protein. Some binding calls cover weakened binding; strength is not graded here.

Sequences of proteins named here, by UniProt entry; tags and fusion partners are left off.
UniProt P22002: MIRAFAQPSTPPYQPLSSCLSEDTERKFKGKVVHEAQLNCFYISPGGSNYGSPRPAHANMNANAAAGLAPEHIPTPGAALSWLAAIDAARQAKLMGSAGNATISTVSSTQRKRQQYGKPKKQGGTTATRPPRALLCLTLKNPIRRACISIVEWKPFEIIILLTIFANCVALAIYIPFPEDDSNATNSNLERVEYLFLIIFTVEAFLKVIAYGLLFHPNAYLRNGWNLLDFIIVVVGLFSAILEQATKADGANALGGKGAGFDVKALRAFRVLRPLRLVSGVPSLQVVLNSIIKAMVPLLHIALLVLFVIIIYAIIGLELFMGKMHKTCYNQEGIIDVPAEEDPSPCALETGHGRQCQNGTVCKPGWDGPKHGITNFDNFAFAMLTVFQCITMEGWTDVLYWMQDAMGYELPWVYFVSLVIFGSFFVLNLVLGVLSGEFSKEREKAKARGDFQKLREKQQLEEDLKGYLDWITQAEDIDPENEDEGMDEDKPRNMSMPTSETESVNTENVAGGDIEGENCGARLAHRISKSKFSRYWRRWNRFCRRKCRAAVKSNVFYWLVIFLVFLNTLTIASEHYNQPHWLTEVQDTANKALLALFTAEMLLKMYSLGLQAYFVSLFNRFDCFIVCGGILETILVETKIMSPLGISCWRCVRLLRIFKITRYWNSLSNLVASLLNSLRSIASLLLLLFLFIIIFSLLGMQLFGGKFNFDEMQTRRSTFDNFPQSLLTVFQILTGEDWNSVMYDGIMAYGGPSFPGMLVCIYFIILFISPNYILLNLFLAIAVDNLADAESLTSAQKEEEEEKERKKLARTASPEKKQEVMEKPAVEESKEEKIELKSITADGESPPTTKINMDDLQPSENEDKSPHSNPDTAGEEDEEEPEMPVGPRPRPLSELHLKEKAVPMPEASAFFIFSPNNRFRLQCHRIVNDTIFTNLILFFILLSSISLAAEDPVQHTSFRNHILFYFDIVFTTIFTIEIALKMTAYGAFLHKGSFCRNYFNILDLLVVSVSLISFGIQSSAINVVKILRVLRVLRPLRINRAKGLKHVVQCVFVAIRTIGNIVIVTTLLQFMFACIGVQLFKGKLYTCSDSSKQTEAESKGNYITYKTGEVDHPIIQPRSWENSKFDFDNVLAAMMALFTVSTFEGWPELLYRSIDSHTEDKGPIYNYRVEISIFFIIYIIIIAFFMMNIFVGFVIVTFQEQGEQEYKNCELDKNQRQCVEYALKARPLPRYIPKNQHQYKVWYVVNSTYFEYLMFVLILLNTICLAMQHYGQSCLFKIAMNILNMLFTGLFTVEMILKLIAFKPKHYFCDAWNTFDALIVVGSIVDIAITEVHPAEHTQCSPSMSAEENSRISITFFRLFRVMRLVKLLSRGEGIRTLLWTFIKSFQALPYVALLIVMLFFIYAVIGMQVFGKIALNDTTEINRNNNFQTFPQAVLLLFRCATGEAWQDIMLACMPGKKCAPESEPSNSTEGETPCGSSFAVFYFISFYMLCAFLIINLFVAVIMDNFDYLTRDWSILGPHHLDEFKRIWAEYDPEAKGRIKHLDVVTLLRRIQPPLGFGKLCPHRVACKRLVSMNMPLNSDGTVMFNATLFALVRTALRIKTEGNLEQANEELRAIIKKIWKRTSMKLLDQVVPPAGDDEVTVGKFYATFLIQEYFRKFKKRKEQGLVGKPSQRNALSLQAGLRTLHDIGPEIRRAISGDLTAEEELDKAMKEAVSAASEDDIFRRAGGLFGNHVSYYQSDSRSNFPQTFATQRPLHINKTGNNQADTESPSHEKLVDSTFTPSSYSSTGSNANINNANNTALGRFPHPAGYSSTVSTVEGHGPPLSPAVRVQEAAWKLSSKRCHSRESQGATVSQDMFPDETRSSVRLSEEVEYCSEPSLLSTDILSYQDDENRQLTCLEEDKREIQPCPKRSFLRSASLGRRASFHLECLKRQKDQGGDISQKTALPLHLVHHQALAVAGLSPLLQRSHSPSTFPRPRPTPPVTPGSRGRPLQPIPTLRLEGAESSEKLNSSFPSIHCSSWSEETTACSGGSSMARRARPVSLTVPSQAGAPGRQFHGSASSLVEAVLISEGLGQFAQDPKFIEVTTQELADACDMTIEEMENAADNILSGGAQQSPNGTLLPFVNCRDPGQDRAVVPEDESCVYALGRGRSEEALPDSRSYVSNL

B1: Junctophilin-2 (protein, UniProt Q2PS20 1-692)
chain: MSGGRFDFDDGGAYCGGWEGGKAHGHGLCTGPKGQGEYSGSWNFGFEVAGVYTWPSGNTFEGYWSQGKRHGLGIETKGRWLYKGEWTHGFKGRYGIRQSTNSGAKYEGTWNNGLQDGYGTETYADGGTYQGQFTNGMRHGYGVRQSVPYGMAVVVRSPLRTSLSSLRSEHSNGTVAPDSPAADGPTLPLPPVPRGGFALSLLATAEAARPPGLFTRGALLGRLRRSESRTSLGSQRSRLSFLKSELSSGASDAASTGSLAEGAEGPDDAAAPFDADIDATTTETYMGEWKNDKRSGFGVSERSSGLRYEGEWLDNLRHGYGRTTLPDGHREEGKYRHNVLVKGTKRRVLPLKSNKVRQKVEHGVEGAQRAAAIARQKAEIAASRTSHAKAKAEAAEQAALAANQESNIARTLAKELAPDFYQPGPEYQKRRLLQEILENSESLLEPRERGPGTGLPERPRESPQLHERETPQPEGGPPSPAGTPPQPKRPRPGSSKDGLLSPGAWNGEPGGEGSRPATPSDGAGRRSPARPASEHMAIEALQPPPAPSREPEVALYRGYHSYAVRTGPPEPPPLEDEPEPEPEVPRSDSEPPSPVSATVQEEESPAPRSRVPAKPATLEPKPIVPKAEPKAKARKTEARGLSKAGAKKKGRKEVAQEAEAEVEVEEVPNTVLICMVILLNIGLAILFVHLLT

Tests used:
[1] = target: T1, Caveolin-3 (rat (endogenous in Lewis rat cardiomyocytes)) (UniProt P51638); test: proximity ligation; Duolink (in situ) kit with 'green' detection reagents on isolated Lewis rat cardiomyocytes fixed with methanol (-20°C); cells from loaded hearts and from hearts after 8 weeks of partial mechanical unloading (HTHAL); confocal imaging, particles counted in ImageJ
T1 sequence: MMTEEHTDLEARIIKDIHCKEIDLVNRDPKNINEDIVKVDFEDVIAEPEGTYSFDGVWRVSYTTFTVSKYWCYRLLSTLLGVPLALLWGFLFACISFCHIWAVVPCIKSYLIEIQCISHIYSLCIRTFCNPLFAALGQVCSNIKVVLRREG

[2] = target: T1, Caveolin-3 (rat (endogenous in Lewis rat cardiomyocytes)); test: as above; remark: listed apart in the source

Row | Molecule | binding [1] | binding [2]
1 | Cav1.2 sub-unit of the L-type calcium channel (from UniProt P22002 1-2169) | binds | 
2 | B1 |  | binds
